Here are results for one molecule from publication PMC12203971.

Results are given in words; binding and its absence hold for the method and conditions named.

The target in assay [1] is Drebrin-SAH (single alpha-helix region of human Drebrin, residues 173-238, with an eight-residue N-terminal linker) (human). The experiment in a line: SEC-MALS; SEC-MALLS/RI; 220 uM Drebrin-SAH injected on Superdex Increase 75 5/150 in 17 mM NaH2PO4, 3 mM Na2HPO4, 50 mM NaCl, pH 6, 0.3 ml/min; 25 C; both purified.
Assay [2] has the same target. The experiment in a line: SAXS; batch mode at 20 C, EMBL-P12 beam line; Drebrin-SAH at 88, 175 and 350 uM in 17 mM NaH2PO4, 3 mM Na2HPO4, 50 mM NaCl, pH 6; concentration-independent MW estimate from scattering invariants; both purified.

B1: Drebrin-SAH (single alpha-helix region of human Drebrin, residues 173-238, with an eight-residue N-terminal linker) (domain or fragment)
chain: GSHMKDPMKRINREQFWEQAKKEEELRKEEERKKALDERLRFEQERMEQERQEQEERERRYREREQQIEEHRRK
Take B1: the binding result is “no binding (tested: 220 uM)” in assay [1]; “no binding (tested: 88, 175 and 350 uM)” in assay [2].
